Laboratory results published in article PMC4430907.
No constants are given. Whether binding was seen depends on the method and setting. Binding seen in cells or lysates may run through a third protein. Some binding calls cover weakened binding; strength is not graded here.

Amino acid sequences for entries named in this document (tags omitted).
UniProt P61769: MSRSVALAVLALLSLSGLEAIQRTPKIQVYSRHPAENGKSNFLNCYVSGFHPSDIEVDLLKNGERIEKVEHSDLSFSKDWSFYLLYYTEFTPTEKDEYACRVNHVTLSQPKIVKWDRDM

Biological target: β2-microglobulin (human (endogenous in HK-2)) (UniProt P61769)
Assay: co-IP; HK-2 cells; immunoprecipitation with a monoclonal anti-β2-M Ab and an anti-HFE Ab (Immunoprecipitation Starter Pack, GE Healthcare); Western blot of HFE; IgG Ab as control

binding: binds
B1: hemochromatosis (HFE) protein (protein, UniProt Q30201 23-348)
chain: RLLRSHSLHYLFMGASEQDLGLSLFEALGYVDDQLFVFYDHESRRVEPRTPWVSSRISSQMWLQLSQSLKGWDHMFTVDFWTIMENHNHSKESHTLQVILGCEMQEDNSTEGYWKYGYDGQDHLEFCPDTLDWRAAEPRAWPTKLEWERHKIRARQNRAYLERDCPAQLQQLLELGRGVLDQQVPPLVKVTHHVTSSVTTLRCRALNYYPQNITMKWLKDKQPMDAKEFEPKDVLPNGDGTYQGWITLAVPPGEEQRYTCQVEHPGLDQPLIVIWEPSPSGTLVIGVISGIAVFVVILFIGILFIILRKRQGSRGAMGHYVLAERE
